Measurements: PMC12040169 (PLOS Biology, 2025)
This is one part of the list.

tested on: T1, CTL2-GFP (C. trachomatis L2/434/Bu, GFP-expressing); set-up: species or system HeLa; Intracellular C. trachomatis growth in HeLa cells, bulk GFP fluorescence relative to DMSO; conditions: bulk GFP, single well; 28.5 h, 10 µM; inhibitor
T1 construct: L2/434/Bu, GFP-expressing

SMILES | % of control remaining [%]
O=C(O)CSCC(=O)Nc1ccc(Cl)cn1 [CBK057543] | 136.371
COC(=O)[C@@H](C)NC(=O)[C@@H]1CN(C(=O)c2cccc(F)c2)CCN1C(C)=O [CBK289620] | 106.15
Cc1ccc2c(c1)nc1n2CCC1O (centres unmarked) [CBK113622] | 103.254
CC1CC(Nc2ccccc2)c2ccccc2N1 (centres unmarked) [CBK057947] | 121.641
O=C(c1cccnc1)C1CCN(C(=O)C2CCCC2)CC1 [CBK283508] | 131.797
CCOc1ccc2nc(NS(=O)(=O)c3ccc4c5c(cccc35)C(=O)N4)sc2c1 [CBK262162] | 88.1408
Cn1nc(C2CCCC2)cc1[C@H]1CN2CC[C@H]1C[C@@H]2CNC(=O)N1CCOCC1 [CBK288740] | 126.153
CC(C)(C)C(=O)N1CCC(C(=O)NC(c2ccc3c(c2)OCO3)c2ccccn2)CC1 (centres unmarked) [CBK060074] | 93.9996
CS(=O)(=O)c1ccc(-n2ncc(-c3ccc(C(F)(F)F)cc3)n2)cc1 [CBK112698] | 81.9225
CC(Oc1cccc2ccccc12)C(=O)N/N=C/c1ccc(Cl)cc1Cl (centres unmarked) [CBK262218] | 103.023
CC(C)=C(NC(=O)c1ccccc1)C(=O)Nc1cccc(C(=O)O)c1 [CBK058180] | 111.548
CCCC1NCCn2cccc21 (centres unmarked) [CBK007074F] | 132.529
CN1CCN(c2ccc(NC(=O)c3ccc([N+](=O)[O-])o3)cc2)CC1 [CBK269727] | 55.476
COc1cccc(Oc2nccnc2-c2ccc(F)cc2)c1 [CBK106897] | 102.198
CC(C)c1c(SCCN)[nH]c2ccccc12 [CBK017265C] | 93.3203
O=C(O)c1ccc(NC(=O)c2ccc(S(=O)(=O)N3CCCCC3)cc2)cc1 [CBK267813] | 115.915
COc1cncc(-c2cc(NCc3cc(OC)c(OC)c(OC)c3)ncn2)c1 [CBK091183] | 98.3561
Cc1ccc2c(c1)C(C)(c1ccccc1)CC(C)(C)N2C(=O)CSc1nncn1C (centres unmarked) [CBK022397] | 78.9696
COc1ccc(C(=O)N2CCC3(CCN(Cc4cccc(C#N)c4)C3)C2)cc1OC (centres unmarked) [CBK132153] | 120.764
Cc1c(C(=O)N(CC(=O)O)C2CC2)nnn1-c1ccc(Cl)cc1F [CBK304738] | 97.4198
Clc1ccc(-c2nn3c4cc(N5CCNCC5)ccc4nc3c3ccccc23)cc1 [CBK268319] | 133.382
O=C(O)c1cccc(Nc2ncnc3ccccc23)c1 [CBK073042] | 104.333
Cc1cc(NC(c2cccc([N+](=O)[O-])c2)c2ccc3cccnc3c2O)no1 (centres unmarked) [CBK296083] | 156.04
COc1ccc([N+](=O)[O-])cc1Nc1nc(-c2ccccc2)nc2ccccc12 [CBK265913] | 100
C[C@]12CN(Cc3cccs3)C[C@H]1NC(=O)c1ccccc1C2=O [CBK284702] | 167.948

SMILES | % of control remaining [%]
Cc1cc(I)ccc1NC(=O)CN(c1ccccc1)S(=O)(=O)c1ccccc1[N+](=O)[O-] [CBK265954] | 67.9738
COCCNC(=O)c1cc(-c2cc(C)oc2C)nc2c1cnn2C(C)C [CBK305052] | 134.336
COc1ccc(C(=O)N(C)Cc2cnn(C)c2)cc1Br [CBK305149] | 115.972
CC(C)(C)OC(=O)N1CCCC(C(=O)NC(CO)Cc2ccccn2)C1 (centres unmarked) [CBK305458] | 119.324
Clc1cc2nc(SCCc3cnccn3)c(N3CCCC3)nc2cc1Cl [CBK103700] | 118.611
O=C(O)c1c(NS(=O)(=O)Cc2ccccc2[N+](=O)[O-])sc2c1CCCC2 [CBK024819] | 129.112
CC(=O)N[C@@H](C(=O)N1CC[C@@H]2NC(=O)[C@@H](Cc3ccccc3)NC(=O)C3(C/C=C/C[C@H]2C1)CCOCC3)C(C)C [CBK292198] | 104.949
COc1ccc([C@@]23CC[C@@H](NC(=O)Nc4c(F)cc(F)cc4Cl)C[C@@H]2N(C)CC3)cc1OC [CBK073740T] | 88.3424
O=C(CSCCO)Nc1ccc(N2CCOCC2)cc1 [CBK269616] | 166.188
Cc1ccc(C(=O)N2CCC(CO)CC2)cc1C [CBK083532] | 112.461
COCCn1c(SC(C)C(=O)OC)nc2ccc(Br)cc2c1=O (centres unmarked) [CBK306479] | 111.724
CCc1ccc(CNC(=O)NC2CCCc3c2cnn3CCO)s1 (centres unmarked) [CBK305747] | 128.302
Cc1ccc(-c2cc(O)n(-c3nc(C)cc(C)n3)n2)cc1 [CBK270165] | 133.141
COC(=O)c1sccc1NC(=O)COc1ccc([N+](=O)[O-])cc1Cl [CBK066828] | 102.418
COc1nn(CC(=O)NC2(C)CCC2)c(=O)c2ccccc12 [CBK281603] | 129.059
Cc1ccc(C2=CCN(CC(=O)NC3CCCC3)CC2)o1 [CBK283605] | 129.797
Nc1ncnc2c1nc1n2[C@@H]2O[C@H](C1)[C@H](O)C2O (some centres unmarked) [CBK201224] | 139.937
CCN(CC)C(=O)c1ccc(NS(=O)(=O)Cc2ccccc2[N+](=O)[O-])cc1 [CBK034396] | 127.31
COc1ccc(CCCC(=O)Nc2ccccc2N2CCNCC2)cc1OC [CBK028283T] | 81.9506
O=C(OCCc1c[nH]c2ccccc12)N1CCOCC1 [CBK200415] | 101.171
CC(C)n1c(=O)n(CC(=O)NC2CCCC2)c2cccnc21 [CBK283700] | 143.772
Cc1ccc(C2(C(=O)NCCCn3ccnc3C)CCOCC2)cc1 [CBK281588] | 137.933
CCOC(=O)c1c(NC(=O)CSc2nnc(C)s2)sc2c1CCC2 [CBK263183] | 134.41
O=C(O)c1ccc(CSc2nc(-c3ccccc3)cc(C(F)(F)F)n2)o1 [CBK269514] | 133.241
CNC(=O)C1(Cc2ccc(-c3ccccc3)cc2)CCN(C(=O)CC2CCCCC2)CC1 [CBK285763] | 90.1982

Rewritten in CSV form: 4 of the compounds above
SMILES,% of control remaining [%]
CS(=O)(=O)c1ccc(-n2ncc(-c3ccc(C(F)(F)F)cc3)n2)cc1 [CBK112698],81.9225
CCc1ccc(CNC(=O)NC2CCCc3c2cnn3CCO)s1 (centres unmarked) [CBK305747],128.302
COC(=O)c1sccc1NC(=O)COc1ccc([N+](=O)[O-])cc1Cl [CBK066828],102.418
CCN(CC)C(=O)c1ccc(NS(=O)(=O)Cc2ccccc2[N+](=O)[O-])cc1 [CBK034396],127.31
